## Library compounds against nucleic acid targets

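Each compound is printed as two spots on a slide made to bind it covalently, so it has no test concentration; the read-out is fluorescence of the bound, labelled oligonucleotide. The data file lists only calls. An earlier report of the laboratory on the PreQ1, TPP and SAM-II riboswitches (doi:10.1038/s41467-019-09493-3) used 1 µM RNA for 2 h and required a mean Z-score above 3 (spot signal-to-noise against the whole library), a score well above that on a control array, and duplicate spots agreeing (coefficient of variation under 100); it then also set aside compounds that hit other targets, which this list keeps. The cut-offs behind this list may differ. A missing hit is not proof of no binding, and a hit is not a measured affinity.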 Key: active = hit, inactive = tested without a hit. This is an unselected part of the compounds tested. A target missing from an entry has no call listed here. A dash means that no call is listed here.

Oligonucleotides screened, 5′ to 3′:
TPP: TPP riboswitch RNA three-way junction, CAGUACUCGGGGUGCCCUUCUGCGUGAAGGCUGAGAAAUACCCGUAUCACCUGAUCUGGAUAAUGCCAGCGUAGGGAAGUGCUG. About 24,000 compounds screened, about 160 hits.
PreQ1: PreQ1 riboswitch RNA pseudoknot, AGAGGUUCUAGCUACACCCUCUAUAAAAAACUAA. From B. subtilis. About 24,000 compounds screened, about 170 hits.
SAM-II: SAM-II riboswitch RNA pseudoknot, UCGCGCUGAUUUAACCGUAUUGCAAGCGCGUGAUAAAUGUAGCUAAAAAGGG. About 21,000 compounds screened, about 200 hits.

With Fc1ccc(-c2noc3ncnc(NC4CCCc5ccccc54)c23)cc1 (centres unmarked) the screen gave TPP: inactive; PreQ1: inactive.
With Cn1c(=O)[nH]cc(CC(=O)N2CCOCC(O)C2)c1=O (centres unmarked) the screen gave TPP: inactive; PreQ1: inactive; SAM-II: inactive.
With CCc1ccc(Nc2ncnc3c2nc2n3CCCC2)cc1 the screen gave TPP: inactive; PreQ1: inactive.
With OC1(CNCc2nc(-c3ccncc3)n[nH]2)CCNC1 (centres unmarked) the screen gave TPP: inactive; PreQ1: inactive; SAM-II: inactive.
With O=C(N[C@@H]1CCN(Cc2ccc(OC(F)F)cc2)C[C@H]1O)c1ccccn1 the screen gave TPP: inactive; PreQ1: inactive; SAM-II: inactive.
With COc1ccc(OC)c(Nc2ncnc3c2nc2n3CCCC2)c1 the screen gave TPP: inactive; PreQ1: inactive.
With O=C(CCCO)NCCc1nc2ccccc2n1Cc1ccc(F)cc1 the screen gave TPP: inactive; PreQ1: inactive.
With O=C(CN1CCN(CCOCCO)CC1)N1c2ccccc2Sc2ccc(Cl)cc21 the screen gave TPP: inactive; PreQ1: inactive; SAM-II: inactive.
With Cn1c(N2CCOCC2)nc2cc(C(=O)N3CCCC3CCO)ccc21 (centres unmarked) the screen gave TPP: inactive; PreQ1: inactive; SAM-II: inactive.
With COc1ccccc1Nc1nc(-c2c(C)nc3ccccn23)cs1 the screen gave TPP: inactive; PreQ1: inactive; SAM-II: inactive.
With Cc1cccc(N2CCN(C(C(=O)O)c3ccc(CCCO)cc3)CC2)n1 (centres unmarked) the screen gave TPP: inactive; PreQ1: inactive; SAM-II: inactive.
With CCOC(=O)c1ccc(NC2c3ccccc3C(=O)N2c2cccnc2)cc1 (centres unmarked) the screen gave TPP: inactive; PreQ1: inactive; SAM-II: inactive.
With O=C(C=Cc1ccc(CN(CCO)CCc2c[nH]c3ccccc23)cc1)NO the screen gave TPP: inactive; PreQ1: inactive; SAM-II: inactive.
With CCCC1=C(C(=O)OC(C)(C)C)C2(C(=O)Nc3ccccc32)C(C(=O)OCC)=C(N)O1 (centres unmarked) the screen gave TPP: inactive; PreQ1: inactive; SAM-II: inactive.
With CCN(CCNC(=O)c1cn([C@H]2CC[C@@H](N)CC2)nn1)c1cccc(C)c1 the screen gave TPP: inactive; PreQ1: inactive; SAM-II: inactive.
With CCc1c(C)nc2nc(-c3ccccc3)nn2c1Nc1cccc(C(C)=O)c1 the screen gave TPP: inactive; PreQ1: inactive; SAM-II: inactive.
With N#Cc1ncc(Cl)c2ccccc12 the screen gave TPP: inactive; PreQ1: inactive; SAM-II: inactive.
With COc1ccc(CNCc2ccc3c(c2)n(C)c(=O)n3C)cc1 the screen gave TPP: inactive; PreQ1: inactive.
With CC(=O)Oc1ccc(N2C(=O)CC(Nc3ccc(N4CCOCC4)cc3)C2=O)cc1 (centres unmarked) the screen gave TPP: inactive; PreQ1: inactive; SAM-II: inactive.
With Clc1ccc(-c2noc3ncnc(NC4CCCCC4)c23)cc1 the screen gave TPP: inactive; PreQ1: inactive; SAM-II: inactive.
With CCCSc1ccccc1NC(=O)N(C)Cc1cnc(N)nc1 the screen gave TPP: inactive; PreQ1: inactive; SAM-II: inactive.
With CCOc1ccc(S(=O)(=O)N2CCN(c3cc(C)nc(NC4CCCCC4)n3)CC2)cc1 the screen gave TPP: inactive; PreQ1: inactive.
With COc1ccc2c(c1)c(C1=C(c3c[nH]c4ccccc34)C(=O)NC1=O)cn2CCCN(C)C the screen gave TPP: inactive; PreQ1: inactive; SAM-II: inactive.
With Fc1ccc(CNc2ncnc3sc4c(c23)CCCC4)cc1 the screen gave TPP: inactive; PreQ1: inactive.
With c1ccc2sc(N3CCC(NCc4ccsc4)CC3)nc2c1 the screen gave TPP: inactive; PreQ1: inactive; SAM-II: inactive.

Repeated from the top, 3 entries:

| structure | TPP | PreQ1 | SAM-II |
|---|---|---|---|
| `Fc1ccc(-c2noc3ncnc(NC4CCCc5ccccc54)c23)cc1` (centres unmarked) | inactive | inactive | - |
| `Cn1c(=O)[nH]cc(CC(=O)N2CCOCC(O)C2)c1=O` (centres unmarked) | inactive | inactive | inactive |
| `CCc1ccc(Nc2ncnc3c2nc2n3CCCC2)cc1` | inactive | inactive | - |

Source: the ROBIN nucleic acid binder screens (doi:10.1002/anie.202211358).